# Construct, isoform or probe ends are uncertain for at least one entry. The comparison behind a weaker result is the experiment's own reference, which may not be listed here. Tags and fusion partners may be left off the protein sequences shown.
# Target: T1, DnaE (UniProt O34623)
# T1 sequence (looked up, limits assumed): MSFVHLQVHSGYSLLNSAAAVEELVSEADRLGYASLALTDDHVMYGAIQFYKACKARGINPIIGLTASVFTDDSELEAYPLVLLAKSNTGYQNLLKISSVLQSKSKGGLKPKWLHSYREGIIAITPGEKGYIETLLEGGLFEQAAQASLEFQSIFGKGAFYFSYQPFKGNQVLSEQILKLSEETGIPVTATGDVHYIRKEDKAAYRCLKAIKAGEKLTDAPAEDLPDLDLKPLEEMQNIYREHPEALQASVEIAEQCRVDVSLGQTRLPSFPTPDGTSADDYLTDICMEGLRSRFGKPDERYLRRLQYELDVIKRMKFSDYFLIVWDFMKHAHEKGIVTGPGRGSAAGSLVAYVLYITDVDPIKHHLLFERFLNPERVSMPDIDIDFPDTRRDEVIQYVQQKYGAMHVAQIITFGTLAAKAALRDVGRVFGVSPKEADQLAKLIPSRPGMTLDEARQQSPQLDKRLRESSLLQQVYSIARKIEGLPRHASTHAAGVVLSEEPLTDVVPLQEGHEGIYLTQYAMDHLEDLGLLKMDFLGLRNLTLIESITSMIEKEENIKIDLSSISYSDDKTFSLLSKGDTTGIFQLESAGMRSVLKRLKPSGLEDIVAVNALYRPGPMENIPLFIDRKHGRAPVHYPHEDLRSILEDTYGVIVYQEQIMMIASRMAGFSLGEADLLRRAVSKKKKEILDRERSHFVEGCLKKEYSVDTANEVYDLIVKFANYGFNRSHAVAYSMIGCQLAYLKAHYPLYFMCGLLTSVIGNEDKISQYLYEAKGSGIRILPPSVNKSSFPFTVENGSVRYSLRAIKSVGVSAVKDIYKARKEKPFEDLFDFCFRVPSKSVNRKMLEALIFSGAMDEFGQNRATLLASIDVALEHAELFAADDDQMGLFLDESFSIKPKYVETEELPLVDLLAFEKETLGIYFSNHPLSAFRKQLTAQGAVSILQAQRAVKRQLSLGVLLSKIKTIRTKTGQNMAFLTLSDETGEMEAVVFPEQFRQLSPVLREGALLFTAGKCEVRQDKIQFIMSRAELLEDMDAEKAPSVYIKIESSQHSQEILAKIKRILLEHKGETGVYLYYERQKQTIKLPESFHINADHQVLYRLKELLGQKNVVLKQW
# Assay: EMSA
# Settings: 10 mM Mg2+, slight preference for DNA-primed over RNA-primed; RNA primer strand; EMSA: 20 mM HEPES pH 7.5, 50 mM NaCl, 10 mM MgCl2, 1 mM DTT, 0.66 nM radiolabelled substrate, 37 C 5 min; 5% native PAGE; recombinant protein; protein details: N-terminal His6-MBP removed by TEV; DNA:RNA hybrid
sequence,measurement,value
ACACACACACACACACACACACACCCCCTT / AAGGGGGUGUGUGUG [RNA-primed 30mer template],binding result,binds more weakly

# — PMC5627055, “Interactions of the Bacillus subtilis DnaE polymerase with replisomal proteins modulate its activity and fidelity” (Open Biology, 2017)
